These are yes or no findings as the source states them, for the method shown. For some assays here: Binding seen in cells or lysates may run through a third protein. Some entries that bind do so weakly or less than the wild type. Tags and fused reporters may be left off the sequences shown.

The record followed here is publication PMC4490376.

Assay [1] has as its target T1, C-terminally HA-tagged ABCG2 (ABCG2-HA), transiently expressed in MCF7-luc derivatives (UniProt Q9UNQ0).
T1 sequence: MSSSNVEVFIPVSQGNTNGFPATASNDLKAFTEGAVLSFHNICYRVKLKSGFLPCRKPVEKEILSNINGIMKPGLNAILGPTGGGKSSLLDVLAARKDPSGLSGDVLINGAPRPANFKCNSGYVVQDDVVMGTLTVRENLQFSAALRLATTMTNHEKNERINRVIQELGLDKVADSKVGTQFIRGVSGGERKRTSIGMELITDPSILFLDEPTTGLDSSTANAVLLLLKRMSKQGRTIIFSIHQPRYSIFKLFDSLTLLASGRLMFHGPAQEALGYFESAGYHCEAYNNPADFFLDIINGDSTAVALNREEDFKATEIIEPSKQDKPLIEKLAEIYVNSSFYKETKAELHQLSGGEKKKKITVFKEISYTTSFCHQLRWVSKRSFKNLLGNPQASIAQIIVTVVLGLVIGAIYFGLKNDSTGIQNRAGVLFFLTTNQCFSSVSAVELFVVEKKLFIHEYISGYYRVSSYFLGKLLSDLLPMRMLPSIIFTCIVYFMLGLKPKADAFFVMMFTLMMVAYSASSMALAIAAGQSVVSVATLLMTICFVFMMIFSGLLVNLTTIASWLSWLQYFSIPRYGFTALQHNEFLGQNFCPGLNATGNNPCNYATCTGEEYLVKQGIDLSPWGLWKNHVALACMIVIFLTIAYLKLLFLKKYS
Briefly: proximity ligation; Duolink kit; MCF7-luc anti-NC and MCF7-luc anti-miR-27b cells transfected with pCMV6-ABCG2-HA, 48 h post-transfection; anti-ENPP1 and anti-HA primary antibodies; fluorescence microscopy.

For assay [2], the target named is T2, C-terminally HA-tagged ABCG2 (ABCG2-HA), made in insect cell extract (UniProt Q9UNQ0).
T2 sequence: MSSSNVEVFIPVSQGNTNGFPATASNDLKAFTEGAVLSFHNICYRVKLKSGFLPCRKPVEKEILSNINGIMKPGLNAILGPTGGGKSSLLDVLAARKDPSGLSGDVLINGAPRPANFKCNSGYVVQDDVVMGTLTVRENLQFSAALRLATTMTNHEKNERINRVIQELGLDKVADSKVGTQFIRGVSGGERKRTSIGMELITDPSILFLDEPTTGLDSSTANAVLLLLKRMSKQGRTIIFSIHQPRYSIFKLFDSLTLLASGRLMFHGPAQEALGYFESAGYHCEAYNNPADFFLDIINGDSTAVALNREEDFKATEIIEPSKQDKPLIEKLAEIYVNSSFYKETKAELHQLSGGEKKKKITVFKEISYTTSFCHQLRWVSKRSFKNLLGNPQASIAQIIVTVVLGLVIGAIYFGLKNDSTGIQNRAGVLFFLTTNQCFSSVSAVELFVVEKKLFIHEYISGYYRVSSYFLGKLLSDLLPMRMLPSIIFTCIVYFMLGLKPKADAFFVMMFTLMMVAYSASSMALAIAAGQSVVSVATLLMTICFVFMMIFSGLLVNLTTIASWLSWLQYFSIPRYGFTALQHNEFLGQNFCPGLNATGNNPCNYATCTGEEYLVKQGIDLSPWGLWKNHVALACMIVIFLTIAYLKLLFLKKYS
Briefly: co-IP; in vitro binding assay: affinity-purified ABCG2-HA (insect cell extract) mixed with affinity-purified ENPP1-MF or GFP-F (293T); co-immunoprecipitation with anti-HA or anti-Flag agarose, 4 h at 4 °C, 20 mM Tris-HCl pH 8.0, 150 mM NaCl, 1 mM EDTA, 0.1% NP-40, 10% glycerol, 1 mM DTT; both purified.

B1: ectonucleotide pyrophosphatase/phosphodiesterase family member 1 (ENPP1), endogenous (protein, UniProt P22413 1-925)
chain: MERDGCAGGGSRGGEGGRAPREGPAGNGRDRGRSHAAEAPGDPQAAASLLAPMDVGEEPLEKAARARTAKDPNTYKVLSLVLSVCVLTTILGCIFGLKPSCAKEVKSCKGRCFERTFGNCRCDAACVELGNCCLDYQETCIEPEHIWTCNKFRCGEKRLTRSLCACSDDCKDKGDCCINYSSVCQGEKSWVEEPCESINEPQCPAGFETPPTLLFSLDGFRAEYLHTWGGLLPVISKLKKCGTYTKNMRPVYPTKTFPNHYSIVTGLYPESHGIIDNKMYDPKMNASFSLKSKEKFNPEWYKGEPIWVTAKYQGLKSGTFFWPGSDVEINGIFPDIYKMYNGSVPFEERILAVLQWLQLPKDERPHFYTLYLEEPDSSGHSYGPVSSEVIKALQRVDGMVGMLMDGLKELNLHRCLNLILISDHGMEQGSCKKYIYLNKYLGDVKNIKVIYGPAARLRPSDVPDKYYSFNYEGIARNLSCREPNQHFKPYLKHFLPKRLHFAKSDRIEPLTFYLDPQWQLALNPSERKYCGSGFHGSDNVFSNMQALFVGYGPGFKHGIEADTFENIEVYNLMCDLLNLTPAPNNGTHGSLNHLLKNPVYTPKHPKEVHPLVQCPFTRNPRDNLGCSCNPSILPIEDFQTQFNLTVAEEKIIKHETLPYGRPRVLQKENTICLLSQHQFMSGYSQDILMPLWTSYTVDRNDSFSTEDFSNCLYQDFRIPLSPVHKCSFYKNNTKVSYGFLSPPQLNKNSSGIYSEALLTTNIVPMYQSFQVIWRYFHDTLLRKYAEERNGVNVVSGPVFDFDYDGRCDSLENLRQKRRVIRNQEILIPTHFFIVLTSCKDTSQTPLHCENLDTLAFILPHRTDNSESCVHGKHDSSWVEELLMLHRARITDVEHITGLSFYQQRKEPVSDILKLKTHLPTFSQED
As to B1, the binding result in assay [1] is reported as “binds”.

B2: C-terminally Myc- and Flag-tagged ENPP1 (ENPP1-MF) (protein, UniProt P22413 1-925)
chain: MERDGCAGGGSRGGEGGRAPREGPAGNGRDRGRSHAAEAPGDPQAAASLLAPMDVGEEPLEKAARARTAKDPNTYKVLSLVLSVCVLTTILGCIFGLKPSCAKEVKSCKGRCFERTFGNCRCDAACVELGNCCLDYQETCIEPEHIWTCNKFRCGEKRLTRSLCACSDDCKDKGDCCINYSSVCQGEKSWVEEPCESINEPQCPAGFETPPTLLFSLDGFRAEYLHTWGGLLPVISKLKKCGTYTKNMRPVYPTKTFPNHYSIVTGLYPESHGIIDNKMYDPKMNASFSLKSKEKFNPEWYKGEPIWVTAKYQGLKSGTFFWPGSDVEINGIFPDIYKMYNGSVPFEERILAVLQWLQLPKDERPHFYTLYLEEPDSSGHSYGPVSSEVIKALQRVDGMVGMLMDGLKELNLHRCLNLILISDHGMEQGSCKKYIYLNKYLGDVKNIKVIYGPAARLRPSDVPDKYYSFNYEGIARNLSCREPNQHFKPYLKHFLPKRLHFAKSDRIEPLTFYLDPQWQLALNPSERKYCGSGFHGSDNVFSNMQALFVGYGPGFKHGIEADTFENIEVYNLMCDLLNLTPAPNNGTHGSLNHLLKNPVYTPKHPKEVHPLVQCPFTRNPRDNLGCSCNPSILPIEDFQTQFNLTVAEEKIIKHETLPYGRPRVLQKENTICLLSQHQFMSGYSQDILMPLWTSYTVDRNDSFSTEDFSNCLYQDFRIPLSPVHKCSFYKNNTKVSYGFLSPPQLNKNSSGIYSEALLTTNIVPMYQSFQVIWRYFHDTLLRKYAEERNGVNVVSGPVFDFDYDGRCDSLENLRQKRRVIRNQEILIPTHFFIVLTSCKDTSQTPLHCENLDTLAFILPHRTDNSESCVHGKHDSSWVEELLMLHRARITDVEHITGLSFYQQRKEPVSDILKLKTHLPTFSQED
In the case of B2, the binding result in assay [2] is “binds”.
